The experiment has as its target Gαi2 (endogenous, human platelet lysate) (human) (UniProt P04899). As to the kind of experiment: GST pull-down from GDP+AlF4- treated human platelet lysate, western blot. On the technique in general: In western blotting, separated proteins are transferred to a membrane and probed.

Chains of the proteins cited; added tags and fusions are not shown. Residues count along the entry.
UniProt P04899, residues 2-355: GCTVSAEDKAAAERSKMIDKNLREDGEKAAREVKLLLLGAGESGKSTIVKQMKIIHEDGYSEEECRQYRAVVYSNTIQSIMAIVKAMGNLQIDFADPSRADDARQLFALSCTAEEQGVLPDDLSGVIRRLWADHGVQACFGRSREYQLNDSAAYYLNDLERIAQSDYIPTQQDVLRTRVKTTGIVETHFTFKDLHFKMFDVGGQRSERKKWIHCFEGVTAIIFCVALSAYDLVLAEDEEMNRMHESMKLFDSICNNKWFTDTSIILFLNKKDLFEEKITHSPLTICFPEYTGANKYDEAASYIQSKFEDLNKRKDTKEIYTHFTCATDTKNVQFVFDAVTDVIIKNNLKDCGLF

No constants are given. Whether binding was seen depends on the method and setting. Binding seen in cells or lysates may run through a third protein. Some binding calls cover weakened binding; strength is not graded here. Sequences can lack the tags named with a protein.

B1: GST-RGS18 fusion protein coupled to glutathione-Sepharose 4B (protein, not shown: a dimerising Fc or GST)
chain: METTLLFFSQINMCESKEKTFFKLIHGSGKEETSKEAKIRAKEKRNRLSLLVQKPEFHEDTRSSRSGHLAKETRVSPEEAVKWGESFDKLLSHRDGLEAFTRFLKTEFSEENIEFWIACEDFKKSKGPQQIHLKAKAIYEKFIQTDAPKEVNLDFHTKEVITNSITQPTLHSFDAAQSRVYQLMEQDSYTRFLKSDIYLDLMEGRPQRPTNLRRRSRSFTCNEFQDVQSDVAIWL
B1: the binding entry is reported as “binds”.

The values above are taken from patent US20040067903A1.
